Reference: PubChem BioAssay AID901 (National Center for Advancing Translational Sciences (NCATS), 2007)
This is one part of the list. These are further read-outs of the screen, such as a control signal, another cell line or another target. No call is given for them. Most of these compounds were active or inconclusive in the main read-out, so they are no random draw. The note in brackets gives the kind of curve behind each potency; many fits are weak.

Experiment: qHTS Assay for Identifying the Cell-Membrane Permeable IMPase Inhibitors
Conditions: CHO-M1 cells, IP1 accumulation, HTRF TR-FRET ratio; measured here: donor channel 620 nm AC50

Row | SMILES | AC50
1 | CSCC[C@H](NC(=O)Nc1ccc(C)cc1C)C(=O)O | 0.0631 µM [rising, partial curve, poor fit]
2 | COc1cc2ccccc2cc1C(=O)Nc1ccc2oc(-c3ccc(Cl)cc3)nc2c1 | 0.00562 µM [falling, full curve, poor fit]
3 | CC(C)C(=O)Nc1cccc(NC(=O)CCN2C(=O)c3ccccc3S2(=O)=O)c1 | 2 µM [falling, partial curve, poor fit]
4 | CC(C)(C)C1CCc2onc(C(=O)N3CCOCC3)c2C1 (configuration not stated) | 3.16 µM [rising, single point]
5 | CCOC(=O)CSc1nc(-c2ccccc2)nc2ccc(F)cc12 | 0.794 µM [rising, full curve, poor fit]
6 | CC(=O)Nc1ccc(NC(=O)C2CCCN(c3ncccn3)C2)cc1 (configuration not stated) | 3.16 µM [falling, single point]
7 | CNC(=O)Cc1csc2ccc(Cl)cc12 | 3.98 µM [falling, single point]
8 | CN(C)c1ccc(/C=C/c2cc[n+](C)cc2)cc1 | 12.6 µM [falling, partial curve]
9 | O=C1c2ccccc2-c2onc3ccc(NCc4ccco4)c1c23 | 20 µM [falling, partial curve]
10 | CC(C)=CCC(C)(C)CNC(=O)NC1CCCCC1 | 3.16 µM [rising, single point]
11 | CCCC/C(C)=N/NC(=O)c1cn(-c2ccccc2)nc1-c1ccccc1 | 11.2 µM [falling, partial curve, poor fit]
12 | CN1CCN(/N=C/c2nc(-c3cccc([N+](=O)[O-])c3)n3ccccc23)CC1 | 10 µM [falling, partial curve]
13 | O=C(COc1ccccc1)NCC1CCCO1 (configuration not stated) | 0.158 µM [falling, full curve]
14 | COCCNC(=S)N1CCOCC1 | 35.5 µM [rising, single point]
15 | N=C1C=CC=C2C1=NC1(CCCCC1)N2O | 10 µM [falling, single point]
16 | Cc1ccc(-c2nc3cccnc3o2)cc1NC(=O)COc1ccc(Cl)cc1C | 25.1 µM [falling, single point]
17 | COc1ccc(CNc2nc3ccccc3n2CCN2CCOCC2)cc1 | 1 µM [rising, full curve, poor fit]
18 | CCC(C)[C@@H](NC(=O)OC(C)(C)C)c1nnc(S(=O)(=O)Cc2cccc(C)c2)o1 (some centres not stated) | 5.01 µM [falling, single point]
19 | O=C(CN1N=C(C(F)(F)F)CC1(O)c1ccc([N+](=O)[O-])cc1)c1ccccc1 (configuration not stated) | 0.794 µM [falling, full curve, poor fit]
20 | CCCc1nnc(NC(=O)CCC(=O)N2CCCCCC2)s1 | 0.316 µM [falling, partial curve, poor fit]
21 | CN(C)CC[C@H](c1ccc(Cl)cc1)c1ccccn1 | 0.01 µM [rising, full curve, poor fit]
22 | CCOC(=O)N1CCC(N(CCOC)C(=O)Nc2ccc(CC)cc2)CC1 | 5.01 µM [rising, single point]
23 | COc1ccc2[nH]c(=O)c(CN(C(C)=O)C3CCCCC3)cc2c1 | 0.631 µM [rising, partial curve, poor fit]

Row | SMILES | AC50
24 | Cc1ccccc1OCCN1C(=O)NC2(CCCc3ccccc32)C1=O (configuration not stated) | 0.0158 µM [falling, full curve, poor fit]
25 | COc1ccccc1N1CCN(C(=O)c2cc(-c3cccc(Cl)c3)on2)CC1 | 0.631 µM [falling, full curve, poor fit]
26 | CC(C)(C)n1nnnc1C(c1cccnc1)N(Cc1ccccc1)Cc1cccs1 (configuration not stated) | 15.8 µM [rising, partial curve, poor fit]
27 | CCN(CC)S(=O)(=O)c1cccc(-c2nnc(SCc3nnc(-c4cccs4)o3)n2N)c1 | 3.98 µM [falling, single point]
28 | CCCCc1ccc(C2C(C#N)=C(N)SC(N)=C2C#N)s1 | 12.6 µM [falling, single point]
29 | COCC(C)n1c(SCc2nc(N)nc(Nc3ccccc3C)n2)nc2ccccc2c1=O (configuration not stated) | 3.16 µM [falling, partial curve]
30 | Cc1ccc2c(c1)c(=O)c1ccccc1n2CCCC(=O)Nc1ccc(Cl)cc1C | 35.5 µM [falling, single point]
31 | CC(=O)c1ccc(-n2c(SCC(=O)c3c[nH]c4ccccc34)nc3ccccc3c2=O)cc1 | 5.62 µM [rising, single point]
32 | Cc1c(-c2ccccc2)oc2nc3c(c(=O)n(C)c(=O)n3C)n12 | 0.398 µM [falling, full curve]
33 | COc1ccc(CCNC(=O)CSc2nc(O)c(C(C)C)c(=O)[nH]2)cc1OC | 31.6 µM [falling, single point]
34 | Cc1ccc(-c2cc(C(=O)NCCCn3ccnc3)c3cc(Br)ccc3n2)o1 | 12.6 µM [rising, single point]
35 | CCOc1cc(NC(=O)c2ccco2)c(OCC)cc1NC(=O)c1cc(OC)c(OC)c(OC)c1 | 0.0316 µM [falling, full curve, poor fit]
36 | C=CCC(CC=C)(C(=O)O)c1ccccc1 | 1.12 µM [falling, full curve, poor fit]
37 | COc1ccc(Cn2ccnc2)cc1Br | 10 µM [rising, partial curve]
38 | COCCn1c(C)cc(C2=NNC(=Nc3ccc(F)cc3)SC2)c1C | 3.16 µM [rising, single point]
39 | O=C(C1=C(O)C(=O)N(CCCN2CCOCC2)C1c1ccccn1)c1cc2ccccc2o1 (configuration not stated) | 10 µM [rising, partial curve]
40 | COCCN1C(=O)C(=O)/C(=C(/O)c2ccc3c(c2)OCCO3)C1c1ccc(C(=O)OC)cc1 (configuration not stated) | 20 µM [rising, partial curve]
41 | Cc1cc2cc(CN(Cc3cccs3)C(c3nnnn3C(C)(C)C)C(C)C)c3nnnn3c2cc1C (configuration not stated) | 5.62 µM [rising, single point]
42 | CCN(CC)C(=O)c1ccc(Nc2nnc(C)c3ccccc23)cc1 | 3.16 µM [falling, single point]
43 | COc1ccccc1NC(=O)c1ccc(S(=O)(=O)N2CCOCC2)cc1 | 6.31 µM [falling, single point]
44 | CNc1nc(-c2ccccc2)nc(-c2ccccc2)c1C#N | 25.1 µM [rising, single point]
45 | CCOC(=O)c1c(NC(=O)c2ccc(Br)o2)sc(C)c1CC | 3.98 µM [falling, partial curve]
46 | Cc1cc(C(=O)Nc2ccc(S(=O)(=O)Nc3nccs3)cc2)c(C)o1 | 35.5 µM [falling, single point]

Row | SMILES | AC50
47 | COc1cc(O)c(C(C)=O)cc1OC | 6.31 µM [falling, single point]
48 | CCC(C)NC(=O)CCSc1nc(-c2ccc(OC)cc2)cc(C(F)(F)F)n1 (configuration not stated) | 35.5 µM [rising, single point]
49 | O=C(C1=C(O)C(=O)N(c2ncccn2)C1c1ccc(Cl)cc1)c1ccco1 (configuration not stated) | 12.6 µM [rising, partial curve]
50 | COCCN(CCOC)Cc1cc(=O)oc2cc3c(cc12)CCC3 | 0.0501 µM [rising, partial curve, poor fit]
51 | Cc1ccc(CN2C(=O)C3CCCN3c3ccc(C#N)cc32)cc1 (configuration not stated) | 0.01 µM [rising, full curve, poor fit]
52 | COc1ccc(-c2cn3ccsc3n2)cc1 | 0.794 µM [falling, partial curve]
53 | Nc1[nH]nc2nc3ccccc3nc12 | 15.8 µM [falling, partial curve]
54 | Cc1ccccc1NC(=O)C1(NC(=O)c2cccc(N3C(=O)CSC3c3ccccc3)c2)CCCCC1 (configuration not stated) | 5.01 µM [falling, partial curve]
55 | CCCC1CCC(C(=O)Nn2c(C)nc3ccccc3c2=O)CC1 (configuration not stated) | 0.631 µM [falling, full curve]
56 | Cc1sc(-c2ccccn2)nc1OC(=O)c1ccc(Cl)c(Cl)c1 | 0.00316 µM [rising, full curve, poor fit]
57 | CCOC(=O)C1CCN(C(=O)COc2ccc(S(=O)(=O)NC(C)C)cc2Cl)CC1 | 3.98 µM [rising, single point]
58 | Cc1ccc(C(=O)Nc2nnc(-c3ccc(C(C)(C)C)cc3)s2)cc1 | 0.316 µM [rising, full curve, poor fit]
59 | O=c1oc2ccccc2c2c1SC(C(F)(F)F)C2 (configuration not stated) | 5.01 µM [falling, single point]
60 | CCN1CCN(C(=O)CS(=O)(=O)Cc2nc(-c3ccc(C)cc3)oc2C)CC1 | 2.82 µM [falling, partial curve]
61 | O=C(NCc1cccs1)c1nc2c(nnn2Cc2ccc(F)cc2)c(=O)[nH]1 | 0.158 µM [falling, full curve]
62 | Cc1cc(NC(=O)c2ccc(S(=O)(=O)N3CCCC3)cc2)nc2c1c(=O)oc1ccccc12 | 31.6 µM [rising, single point]
63 | CCCOc1ccc2oc(=O)c3c(c2c1)CCCN3C(=O)CN1CCc2ccccc2C1 | 6.31 µM [falling, full curve, poor fit]
64 | COc1ccc(-c2nc3scc(-c4ccc(OC)c(OC)c4)c3c(=O)o2)cc1 | 0.0316 µM [rising, full curve]
65 | CCc1nc(SCC(=O)Nc2nc3c(s2)CCCC3)c2ccccc2n1 | 10 µM [rising, single point]
66 | O=C(c1cc2c(s1)-c1ccccc1OC2)N1CCN(c2ccccc2)CC1 | 12.6 µM [rising, single point]
67 | Cn1nnnc1SCC(=O)NC(C)(C)C | 1 µM [falling, partial curve, poor fit]

Random excerpt: six entries already listed
Row | SMILES | AC50
60 | CCN1CCN(C(=O)CS(=O)(=O)Cc2nc(-c3ccc(C)cc3)oc2C)CC1 | 2.82 µM [falling, partial curve]
53 | Nc1[nH]nc2nc3ccccc3nc12 | 15.8 µM [falling, partial curve]
62 | Cc1cc(NC(=O)c2ccc(S(=O)(=O)N3CCCC3)cc2)nc2c1c(=O)oc1ccccc12 | 31.6 µM [rising, single point]
57 | CCOC(=O)C1CCN(C(=O)COc2ccc(S(=O)(=O)NC(C)C)cc2Cl)CC1 | 3.98 µM [rising, single point]
16 | Cc1ccc(-c2nc3cccnc3o2)cc1NC(=O)COc1ccc(Cl)cc1C | 25.1 µM [falling, single point]
48 | CCC(C)NC(=O)CCSc1nc(-c2ccc(OC)cc2)cc(C(F)(F)F)n1 (configuration not stated) | 35.5 µM [rising, single point]
